# Some peptides are written in HELM: one residue between dots, names in brackets for other building blocks, links after the first $.
# Assay: Fmoc solid-phase peptide synthesis
# Settings: whole synthesis
substance,measurement,value
"PEPTIDE1{G.R.K.K.R.R.Q.R.R.R.P.P.Q.[bAla].C.W.M.S.P.R.H.L.G.T.C.[am]}$PEPTIDE1,PEPTIDE1,15:R3-25:R3$$$V2.0",final purity (method not given),exceeding 95%

# — patent EP4796565A1 (Yongzhou Zhonggu Biotechnology Co., Ltd., priority 2023, dated 2025)
